In the test the target is T1, Protein kinase D2 (human (endogenous in Jurkat)) (UniProt Q9BZL6).
T1 sequence: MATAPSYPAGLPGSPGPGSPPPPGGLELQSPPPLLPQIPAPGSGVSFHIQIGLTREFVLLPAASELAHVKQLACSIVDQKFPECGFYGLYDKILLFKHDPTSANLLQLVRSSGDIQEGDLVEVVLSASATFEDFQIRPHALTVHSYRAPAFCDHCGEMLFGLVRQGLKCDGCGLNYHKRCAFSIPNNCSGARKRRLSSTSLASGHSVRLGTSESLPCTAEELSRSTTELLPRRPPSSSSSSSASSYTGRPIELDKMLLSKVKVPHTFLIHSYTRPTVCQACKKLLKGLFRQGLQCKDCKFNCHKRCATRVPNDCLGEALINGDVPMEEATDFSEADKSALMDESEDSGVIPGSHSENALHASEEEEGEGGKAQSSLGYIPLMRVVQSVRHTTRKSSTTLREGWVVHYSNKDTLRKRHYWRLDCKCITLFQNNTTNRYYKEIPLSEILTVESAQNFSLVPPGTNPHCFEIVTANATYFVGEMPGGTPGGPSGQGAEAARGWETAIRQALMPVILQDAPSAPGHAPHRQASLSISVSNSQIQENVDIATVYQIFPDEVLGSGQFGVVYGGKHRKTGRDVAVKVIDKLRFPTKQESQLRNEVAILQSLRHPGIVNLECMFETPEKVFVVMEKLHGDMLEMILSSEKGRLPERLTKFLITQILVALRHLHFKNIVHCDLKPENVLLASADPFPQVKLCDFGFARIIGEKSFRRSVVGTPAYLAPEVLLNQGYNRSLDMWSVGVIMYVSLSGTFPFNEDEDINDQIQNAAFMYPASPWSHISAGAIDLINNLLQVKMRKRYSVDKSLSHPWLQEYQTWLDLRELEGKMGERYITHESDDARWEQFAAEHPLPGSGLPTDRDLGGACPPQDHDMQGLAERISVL
Description: co-IP; Jurkat cells or GFP-SET-WT expressing Jurkat cells (1×10^7) stimulated with PMA (20 ng/ml) and ionomycin (2 µg/ml) for 30 min at 37°C and lysed; lysate immunoprecipitated with anti-PKD2 or anti-GFP antibody and Protein A beads.

In PMC3522678 one finds binding data, which are given here for 1 substance.

Results are given in words; binding and its absence hold for the method and conditions named. In cells and extracts the contact can be indirect. Binding calls can cover weak binding; strength is not graded here.

As to SET protein (from UniProt Q01105-2), the binding entry is “binds”.
